# According to PubChem BioAssay AID1347423 (Functional Genomics Laboratory (NCATS/FGL), 2020):
# In all, about 52,000 sequences went through this assay and about 210 (0.4%) were called active.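 Rule for the calls: active = gene whose silencing raises cell survival under the drug, median off-target-corrected z-score across its silencing RNAs 2 or more; inactive = the rest.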 This is one part of the list.
# Assay: Resistance to Poly (ADP-Ribose) Polymerase inhibitor: Gene Identification via Genome-wide siRNA Screen
# Conditions: mouse BRCA2 R2336H ES cells, olaparib, CellTiter-Glo viability; stronger effect = higher value
# Method in brief: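 Mouse BRCA2 R2336H ES cells were reverse-transfected with siRNA (20 nM final), treated at 48 h with 500 nM olaparib, and read by CellTiter-Glo after 72 h. Scores: MAD-based z per siRNA, median per gene, seed off-target correction.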
row,Sequence,z-score
1,GGUUUUACCCUGUAAUACUTT against 1700012B09Rik,inactive: 0.0751
2,GGAGGAUGAGGAUUUUGAUTT against Tce1,inactive: 1.47
3,GGCCAUUAAUUACUACGAGTT against ttc21a,inactive: 0.669
4,GGGACUGGACCCAUACAAUTT against Cox5b,inactive: -0.657
5,CCCAUCAUCUUCCCAUUCGTT against Olfr146,inactive: -0.426
6,GGUGGACCUUUGAAAAAGCTT against Ifrg15,inactive: -0.0982
7,CCUUAACUGGCACAAUUGCTT against LOC238447,inactive: -0.474
8,UCAUCUUACUCACAGUCUCTT against Tas2r118,inactive: -0.609
9,GGAAAUGAUGUGUUUCAGUTT against Fmo5,inactive: 0.322
10,GGAGCAAAGUGAUAAUUAUTT against Pcdhga8,inactive: -0.0674
11,CCCAUUUAAAUACGGGAUUTT against 4932441K18,inactive: -1.8
12,GGACAAAACGUGCAAUAUGTT against AW548124,inactive: 0.214
13,CCAUGUUCUUCUAUGGCUCTT against 0610041B22Rik,inactive: 1.07
14,CGGUUCAGCUGUCAUUGAUTT against A630029G22Rik,inactive: -0.495
15,GGACAGAAAAACCUUCUAATT against Hexb,inactive: 0.892
16,GCUGUGGUGUUAGAAAUAATT against 1700072E05Rik,inactive: 0.231
17,GGUGAAGACGUGGUAUCAATT against Barx1,inactive: 0.461
18,GGUGUAUUGCAUCAUUUCUTT against 2310061B02Rik,inactive: 0.227
19,GCUAAGGAUUAGAAGGAAATT against Psme2,inactive: 0.429
20,CCUGGUAUAUUACCGCUUCTT against 1110036O03Rik,inactive: 0.708
21,GGAAAGAGUGUGCAAACUCTT against Ly6d,inactive: 0.528
22,GGUAAUAAACAGACAUAGATT against 2410141K09Rik,inactive: 1.09

row,Sequence,z-score
1,GGUGAAAUAUGAGGAGUUUTT against Calm4,inactive: -0.343
2,GGCUCAUGGUUAUUGUAAUTT against Olfr1198,inactive: -0.412
3,GGAAAUGAUACAUUUGUGATT against Mre11a,inactive: 0.126
4,GGCUUGAAUAUUAAAGUGATT against Arhgef19,inactive: 0.747
5,GGGAAGAUUGAUUUUAUCGTT against Abcb11,inactive: 0.927
6,GGAUGAUGUUCUUAAUGCUTT against Slac2b,inactive: -0.78
7,CCCUAUUGUCAAUAUUCUATT against Nr1h5,inactive: 0.713
8,GCAUGUUUACCUCAAAGUGTT against Cd209e,inactive: -0.323
9,GCACUUCGGAUGGUUCGAGTT against Elovl1,inactive: 1.84
10,GCCUCGACCAGUUUAAUCATT against Loh11cr2a,inactive: 0.135
11,CGCAUUGGUAGCUUGGAUATT against Nmbr,inactive: -1.4
12,GUCUGUAUUCCUAGAUUCCTT against Olfr794,inactive: 0.287
13,CGGAUAACAAAAGUAGCAATT against MGC102419,inactive: 1.82
14,GGAGAGAGGAUAAGUCACATT against 2300003C06Rik,inactive: -0.136
15,GGACGAUAAGCUCUCUCAGTT against Epb4.1l3,inactive: 0.803
16,GGCUCUCAAAACUUGCUGUTT against Wdr50,inactive: 1.12
17,GGUAGUAGAGAUGUUUGAUTT against 2310040C09Rik,inactive: -0.307
18,CCAGUCAAAUAUCCAUUAGTT against Abpg,inactive: -1.08
19,GCUCCUCCUAUAUGUGAAUTT against Cr2,inactive: 0.394
20,GCUAAGGUACAUUUGUAGATT against Cebpd,inactive: 1.37
21,GCAGGCCUAAGCCCAUUGATT against V1rb8,inactive: -2.07
22,GGAUACUCCUCUGAGUAGUTT against BC051083,inactive: 0.0677

row,Sequence,z-score
1,CCAUAUGGCUUGUGGCAGATT against Scn1b,inactive: 0.809
2,GGUGAUUGCUGAAGACGAGTT against Fbxw8,inactive: -2.05
3,GGCACCAUCUACGACUAUGTT against Gpx5,inactive: -1.73
4,GGUGAAUCAGACAUACUAUTT against Rnut1,inactive: -0.0602
5,GGCCAAACAAGACCCAUCUTT against Ppil2,inactive: -0.269
6,GGUGAAACAGAGCAGAAAATT against 0610039J04Rik,inactive: 0.0757
7,GCAGCUCCUAAGAAGAUAATT against Samsn1,inactive: -0.307
8,GCAAGAUUCUUGAAAAGGATT against Gm50,inactive: 1.11
9,GCACAAGGAUUCUCGCUGUTT against Ext1,inactive: 1.07
10,GGUGUUUGACCCUUCUUGCTT against Pqbp1,inactive: 1.11
11,GGUCUUCAUGAAAACCCUCTT against 2610028L19Rik,inactive: -3.09
12,CCUGUUUAUAAGUCAGAGATT against Zzz3,inactive: -0.591
13,CCUUUAACUUUCUCCUACCTT against AY078069,inactive: 0.499
14,CGUGGAAGUAAACUCCCUUTT against Zfp112,inactive: 0.644
15,GGUCCUUACCAUCAAUCCUTT against Pgls,inactive: 2.13
16,AUGUCAGCGGCCCUAGAUGTT against LOC384813,inactive: -1.14
17,GGAAAUGGACAUUGUAUUCTT against Serpina3k,inactive: -0.25
18,GGCCAACACUAACACAGACTT against 6330416G13Rik,inactive: -0.59
19,AGAAGAUACCGAUCAAGCGTT against Ndnl2,inactive: 0.356
20,GAUUCUUGAGGAAUUUAGCTT against Syncrip,inactive: 0.581
21,GCCACGAUUGUUGUCAUGCTT against Rab25,inactive: 0.0821
22,GGAAUGUACCCAUAAAAGUTT against D7Rp2e,inactive: -0.268

# Three records drawn at random from those above:
row,Sequence,z-score
2,GGAGGAUGAGGAUUUUGAUTT against Tce1,inactive: 1.47
1,CCAUAUGGCUUGUGGCAGATT against Scn1b,inactive: 0.809
5,GGGAAGAUUGAUUUUAUCGTT against Abcb11,inactive: 0.927
